Data on one compound can be found in patent US20240208964A1, “PYRIDOPYRIMIDINES AND METHODS OF THEIR USE” (PYRIDOPYRIMIDINES AND METHODS OF THEIR USE, priority 2020, published 2024).

Sequences of proteins named here, by UniProt entry; tags and fusion partners are left off.
UniProt Q9Y2I7, whole entry S696N/L932S/Q995L/T998S/S1033A/Q1183K: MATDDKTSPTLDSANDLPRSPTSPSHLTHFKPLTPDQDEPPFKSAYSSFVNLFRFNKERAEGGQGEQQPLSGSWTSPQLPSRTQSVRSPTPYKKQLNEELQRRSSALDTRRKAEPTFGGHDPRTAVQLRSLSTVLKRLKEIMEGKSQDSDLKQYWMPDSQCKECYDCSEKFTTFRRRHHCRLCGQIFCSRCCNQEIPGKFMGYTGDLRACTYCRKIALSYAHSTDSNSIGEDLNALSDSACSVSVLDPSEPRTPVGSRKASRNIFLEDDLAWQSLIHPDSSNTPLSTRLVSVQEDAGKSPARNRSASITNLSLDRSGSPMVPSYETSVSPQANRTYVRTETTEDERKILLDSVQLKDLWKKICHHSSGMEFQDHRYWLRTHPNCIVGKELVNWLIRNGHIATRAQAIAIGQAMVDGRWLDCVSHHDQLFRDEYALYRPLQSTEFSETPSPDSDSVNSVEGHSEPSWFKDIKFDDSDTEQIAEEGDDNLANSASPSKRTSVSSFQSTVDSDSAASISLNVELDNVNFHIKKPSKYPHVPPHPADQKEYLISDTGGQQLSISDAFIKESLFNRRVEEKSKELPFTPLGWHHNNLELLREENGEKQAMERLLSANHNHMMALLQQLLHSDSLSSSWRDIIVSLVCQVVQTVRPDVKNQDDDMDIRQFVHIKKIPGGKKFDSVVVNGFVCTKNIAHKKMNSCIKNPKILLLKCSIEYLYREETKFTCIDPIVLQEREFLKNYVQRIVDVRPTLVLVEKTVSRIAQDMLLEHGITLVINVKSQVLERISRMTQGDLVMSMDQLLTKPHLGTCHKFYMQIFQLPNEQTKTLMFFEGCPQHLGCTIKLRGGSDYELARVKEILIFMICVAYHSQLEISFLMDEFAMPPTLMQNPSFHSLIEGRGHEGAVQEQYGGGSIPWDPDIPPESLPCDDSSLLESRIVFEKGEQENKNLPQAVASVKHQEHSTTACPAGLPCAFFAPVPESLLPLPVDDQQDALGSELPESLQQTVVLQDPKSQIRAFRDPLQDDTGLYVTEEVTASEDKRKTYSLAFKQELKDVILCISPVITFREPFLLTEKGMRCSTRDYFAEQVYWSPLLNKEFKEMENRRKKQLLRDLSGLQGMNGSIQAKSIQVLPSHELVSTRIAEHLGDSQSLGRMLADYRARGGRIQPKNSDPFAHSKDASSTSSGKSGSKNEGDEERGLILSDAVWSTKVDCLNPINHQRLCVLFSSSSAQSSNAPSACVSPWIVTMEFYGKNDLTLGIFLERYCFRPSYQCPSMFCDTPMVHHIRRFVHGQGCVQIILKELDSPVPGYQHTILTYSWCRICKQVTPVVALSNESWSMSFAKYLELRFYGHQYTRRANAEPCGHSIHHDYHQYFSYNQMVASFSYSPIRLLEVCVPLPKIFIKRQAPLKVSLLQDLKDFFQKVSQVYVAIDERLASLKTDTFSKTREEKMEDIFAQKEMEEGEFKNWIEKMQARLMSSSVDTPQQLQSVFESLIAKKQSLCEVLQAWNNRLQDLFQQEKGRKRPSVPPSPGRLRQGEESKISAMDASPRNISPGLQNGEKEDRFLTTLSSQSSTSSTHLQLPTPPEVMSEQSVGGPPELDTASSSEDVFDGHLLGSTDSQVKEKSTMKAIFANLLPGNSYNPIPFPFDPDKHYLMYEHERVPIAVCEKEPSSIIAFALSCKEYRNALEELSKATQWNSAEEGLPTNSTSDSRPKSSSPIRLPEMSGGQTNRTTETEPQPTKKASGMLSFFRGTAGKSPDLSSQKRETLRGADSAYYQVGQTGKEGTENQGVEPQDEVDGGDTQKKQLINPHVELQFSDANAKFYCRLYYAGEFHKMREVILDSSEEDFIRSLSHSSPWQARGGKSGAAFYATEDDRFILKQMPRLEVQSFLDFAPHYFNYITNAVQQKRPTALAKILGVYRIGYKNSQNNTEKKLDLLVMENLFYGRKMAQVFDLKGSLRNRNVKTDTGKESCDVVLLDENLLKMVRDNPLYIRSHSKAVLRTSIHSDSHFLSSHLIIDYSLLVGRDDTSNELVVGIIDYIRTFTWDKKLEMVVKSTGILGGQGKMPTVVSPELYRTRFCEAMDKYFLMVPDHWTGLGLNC

The target in this experiment is full-length human PIKFYVE (GST-PIKFYVE) (Homo sapiens (Human), UniProt Q9Y2I7, L932S/Q1183K/Q995L/S1033A/S696N/T998S). Description: PIKfyve biochemical assay (ADP-Glo Kinase assay, Carna Biosciences). The settings on record: read-out: hPIKfyve IC50, tested form: 3HCl.

A word on the IC50: it is the point on the concentration scale where inhibition reaches its midpoint.

Molecules are shown by their SMILES. The match of structure and compound is tentative.

For `c1cc(-c2nc(N3CCOCC3)c3ncccc3n2)nc(C2CCNCC2)c1`, the IC50 was in the range of 1 to 10 µM.
